# Assay results: article doi:10.1101/2020.09.14.296178
# T1: Halo-tagged PKP2 (cardiac specific plakophilin-2a) (UniProt Q99959)
# T1 sequence: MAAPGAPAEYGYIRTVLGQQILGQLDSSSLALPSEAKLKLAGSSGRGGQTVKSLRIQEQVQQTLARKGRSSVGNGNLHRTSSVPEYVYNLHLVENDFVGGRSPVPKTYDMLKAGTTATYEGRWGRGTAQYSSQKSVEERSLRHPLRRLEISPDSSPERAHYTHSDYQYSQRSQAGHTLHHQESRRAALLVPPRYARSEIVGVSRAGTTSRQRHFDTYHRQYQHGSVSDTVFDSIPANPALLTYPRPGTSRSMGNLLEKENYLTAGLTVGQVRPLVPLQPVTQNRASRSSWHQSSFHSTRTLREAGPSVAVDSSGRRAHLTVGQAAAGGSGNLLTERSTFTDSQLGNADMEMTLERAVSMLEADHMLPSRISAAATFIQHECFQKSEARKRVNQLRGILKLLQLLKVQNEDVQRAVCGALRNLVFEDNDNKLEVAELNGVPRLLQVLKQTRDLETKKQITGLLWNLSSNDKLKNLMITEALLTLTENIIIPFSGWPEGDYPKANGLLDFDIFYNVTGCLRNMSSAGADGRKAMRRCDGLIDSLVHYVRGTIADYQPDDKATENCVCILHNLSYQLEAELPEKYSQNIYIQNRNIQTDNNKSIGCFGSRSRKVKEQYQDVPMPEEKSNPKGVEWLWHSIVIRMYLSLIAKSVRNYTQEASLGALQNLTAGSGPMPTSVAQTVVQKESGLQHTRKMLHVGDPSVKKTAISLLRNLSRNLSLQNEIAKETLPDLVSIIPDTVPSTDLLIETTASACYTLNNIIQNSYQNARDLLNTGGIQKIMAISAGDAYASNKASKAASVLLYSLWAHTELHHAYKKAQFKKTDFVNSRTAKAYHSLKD
# Biological target: T1, Halo-tagged PKP2 (cardiac specific plakophilin-2a)
# Test: affinity purification with mass spectrometry
row,Molecule,binding
1,desmocolin (human (endogenous in HEK293T)),binds
2,desmoglein (human (endogenous in HEK293T)),binds
3,desmoplakin (from UniProt P15924 1-2871),binds
4,"myosin 9 (Myh9), non-muscle myosin heavy chain II-A (from UniProt P35579 1-1960)",binds
5,"myosin 10 (Myh10), non-muscle myosin heavy chain II-B (from UniProt P35580 1-1976)",binds
6,"plakoglobin (protein, UniProt P14923 1-745) MEVMNLMEQPIKVTEWQQTYTYDSGIHSGANTCVPSVSSKGIMEEDEACGRQYTLKKTTTYTQGVPPSQGDLEYQMSTTARAKRVREAMCPGVSGEDSSLLLATQVEGQATNLQRLAEPSQLLKSAIVHLINYQDDAELATRALPELTKLLNDEDPVVVTKAAMIVNQLSKKEASRRALMGSPQLVAAVVRTMQNTSDLDTARCTTSILHNLSHHREGLLAIFKSGGIPALVRMLSSPVESVLFYAITTLHNLLLYQEGAKMAVRLADGLQKMVPLLNKNNPKFLAITTDCLQLLAYGNQESKLIILANGGPQALVQIMRNYSYEKLLWTTSRVLKVLSVCPSNKPAIVEAGGMQALGKHLTSNSPRLVQNCLWTLRNLSDVATKQEGLESVLKILVNQLSVDDVNVLTCATGTLSNLTCNNSKNKTLVTQNSGVEALIHAILRAGDKDDITEPAVCALRHLTSRHPEAEMAQNSVRLNYGIPAIVKLLNQPNQWPLVKATIGLIRNLALCPANHAPLQEAAVIPRLVQLLVKAHQDAQRHVAAGTQQPYTDGVRMEEIVEGCTGALHILARDPMNRMEIFRLNTIPLFVQLLYSSVENIQRVAAGVLCELAQDKEAADAIDAEGASAPLMELLHSRNEGTATYAAAVLFRISEDKNPDYRKRVSVELTNSLFKHDPAAWEAAQSMIPINEPYGDDMDATYRPMYSSDVPLDPLEMHMDMDGDYPIDTYSDGLRPPYPTADHMLA",binds

# No constants are given. Whether binding was seen depends on the method and setting. Binding seen in cells or lysates may run through a third protein. A yes stands for co-enrichment or nearness to the bait. Other partners may have been found. Where a sequence is shown, tags or fusion partners need not be part of it.
